In PubChem BioAssay AID2685 (National Center for Advancing Translational Sciences (NCATS), 2010) one finds cell number change and AC50 data, which are given here for 59 compounds.

This assay in a line: qHTS Assay for Lipid Storage Modulators in Drosophila S3 Cells.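 For cell number change: cells counted by Cell Tracker Red CMTPX staining in the red channel.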 Conditions: BODIPY lipid droplet fluorescence, 18-24 h; for cell number change: measured here: cell count max response, cells fed with added oleic acid. The method in brief:
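Drosophila S3 cells loaded with oleic acid (400 uM, as added) and compounds at several concentrations; lipid droplets imaged by 488-nm laser-scanning cytometry, 500–530 nm intensity and object ratio to cell channel. Percent activity normalized to 20 uM Triacsin C.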
Background: Quantitative high-throughput screening tests each substance at several concentrations.

Setting [1] is: measured here: lipid fluorescence (Fed channel) AC50, cells fed with added oleic acid.
[2] abbreviates: measured here: cell number channel AC50, cells fed with added oleic acid.

The other results are listed elsewhere or left out. Further columns of the screen follow, without active or inactive calls. Compounds called inactive in the main read-out are mostly missing here. Potencies come from curve fits of mixed quality, noted in brackets.

As usually defined, the AC50 is the concentration giving half of the maximal activity seen.

Regarding `CCN1C(=O)[C@@H]2[C@@H](c3ccc(-c4ccc(Cl)c(Cl)c4)cc3)N3CCCC[C@@]3(C(=O)OC)[C@@H]2C1=O`, the cell number change is -24%. The AC50 under setting [1] was 0.82 µM [rising, single point].

For the compound `Cc1nc(C)c(-c2csc(NCc3ccccc3)n2)s1`, the cell number change was -38%. For the same compound, the concentration at half-maximal activity (AC50) under setting [2] is 0.461 µM [falling, full curve, poor fit]. In addition, the AC50 under setting [1] was 2.06 µM [falling, partial curve].

In the case of `CC(=O)N(CCCN1CCOCC1)Cc1ccncc1`, the cell number change is -19.5%. Also, the concentration at half-maximal activity (AC50) under setting [2] is 0.231 µM [falling, full curve, poor fit]. Under setting [1], the AC50 is 0.00461 µM [falling, full curve, poor fit].

As for `COc1nc(NCCc2ccc(OC)c(OC)c2)nc(OC)n1`, the AC50 is 1.46 µM [rising, partial curve] under setting [2] and 23.1 µM [rising, partial curve] under setting [1].

Regarding `CCOc1ccc(C(=O)OCC(=O)NC(C)C)cc1`, the cell number change is -6.47%. The concentration at half-maximal activity (AC50) under setting [1] is 0.326 µM [rising, partial curve, poor fit].

With `Cc1cc(=O)[nH]c(SCC(=O)Nc2nonc2C)n1`, the cell number change is -12.5%. In addition, the concentration at half-maximal activity (AC50) under setting [2] was 6.51 µM [rising, single point]. Also, under setting [1], the concentration at half-maximal activity (AC50) was 0.58 µM [rising, single point].

As for `COc1cccc(-n2c(SCC(=O)Nc3ccc4c(c3)CCC4)nc3ccccc3c2=O)c1`, the cell number change was -20%. Also, under setting [1], the AC50 was 20.6 µM [falling, single point].

In the case of `CCC(=O)Nc1ccc(N2CCCCC2)cc1`, the cell number change is -63.3%. The AC50 under setting [2] was 1.03 µM [falling, full curve].

In the case of `Cc1ccc(S(=O)(=O)CCC(=O)Nc2sccc2C#N)cc1`, the concentration at half-maximal activity (AC50) under setting [1] is 6.51 µM [falling, single point].

For the compound `Cn1cnnc1SCC(=O)Nc1cc(S(=O)(=O)N2CCCCCC2)ccc1Cl`, the concentration at half-maximal activity (AC50) under setting [1] is 0.0058 µM [falling, full curve, poor fit].

For the compound `CC(Oc1cccc(Cl)c1)C(=O)Nc1cc(S(=O)(=O)N2CCOCC2)ccc1N1CCCCC1` (stereo not drawn), the cell number change is 173%.

`CC(C)CC(c1nnnn1C(C)C)N1CCN(c2ccccc2)CC1` (stereo not drawn): the cell number change was 14.5%. Also, the concentration at half-maximal activity (AC50) under setting [1] is 7.31 µM [rising, single point].

With `COc1ccccc1NS(=O)(=O)c1cccc(C(=O)NNC(=O)c2ccc(NC(C)=O)cc2)c1`, the cell number change was -3.2%.

In the case of `Cn1c(N2CCOCC2)c(/C=N/OC(=O)c2ccc(F)cc2)c2ccccc21`, the cell number change turned out to be 83.7%.

As for `Cc1ccccc1-c1nnn(Cc2ccc(F)cc2Cl)n1`, the cell number change turned out to be 19.6%.

Take `CCn1c(=O)cc(SCC(=O)N2CCN(C3CCCCC3)CC2)c2ccccc21`: the cell number change was determined as 112%. Further, under setting [1], the AC50 is 2.91 µM [rising, partial curve].

For `NC(=O)c1cnn2c(C(F)(F)F)cc(-c3ccccc3)nc12`, the cell number change was -6.12%. Under setting [1], the AC50 was 0.651 µM [rising, partial curve, poor fit].

As to `Cc1ccc(CCNS(=O)(=O)c2ccc3c(c2)NC(=O)CCS3)cc1`, the cell number change is 9.54%. Also, the AC50 under setting [1] is 29.1 µM [rising, single point].

For the compound `CCSc1ccccc1C(=O)n1nnc2ccccc21`, the cell number change is 8.57%. Moreover, the concentration at half-maximal activity (AC50) under setting [2] is 3.66 µM [falling, partial curve, poor fit]. In addition, the half-maximal activity concentration (AC50) under setting [1] is 0.731 µM [falling, full curve].

In the case of `CN(C(=O)COC(=O)c1ccc(Cl)nc1)C1CCS(=O)(=O)C1` (stereo not drawn), the cell number change was -15.6%. In addition, under setting [2], the half-maximal activity concentration (AC50) is 0.326 µM [falling, full curve, poor fit]. Moreover, the concentration at half-maximal activity (AC50) under setting [1] is 29.1 µM [falling, single point].

As for `CCOC(=O)CSc1nnc(-c2nnc(SCC(=O)OCC)n2CC)n1CC`, the cell number change stood at 1.48%. For the same compound, the AC50 under setting [1] is 5.8 µM [falling, partial curve].

Take `C=CCNC(=S)N1CCN(S(=O)(=O)c2ccc(C)cc2)CC1`: the cell number change amounted to 10.2%. Also, under setting [1], the AC50 is 0.651 µM [falling, single point].

Consider `COc1ccc(NC(=S)Nc2ccccc2)c(OC)c1`, for which the cell number change was 58.1%. Moreover, under setting [2], the half-maximal activity concentration (AC50) was 29.1 µM [rising, single point]. The half-maximal activity concentration (AC50) under setting [1] is 0.651 µM [rising, single point].

Turning to `CC1CC1C(=O)OCC(=O)Nc1cccc(F)c1` (stereo not drawn), the cell number change amounted to 25%. Further, under setting [1], the AC50 is 6.51 µM [falling, single point].

For `NC(=O)CSc1nnc(COc2ccccc2)n1C1CCCCC1`, the cell number change was 4.74%. Besides, the AC50 under setting [1] was 14.6 µM [falling, partial curve, poor fit].

As for `CC(C)OCCCNC(=O)CCSc1ccc(Cl)cc1`, the cell number change stood at 13%. Moreover, under setting [1], the AC50 is 14.6 µM [falling, partial curve].

As to `O=C(Nc1ccc2c(c1)OCCO2)c1cc(-n2cnnc2)ccc1Cl`, the cell number change is 12.2%. Under setting [1], the half-maximal activity concentration (AC50) is 16.4 µM [rising, single point].

For `Cn1c(=O)c2c(ncn2CC(=O)Nc2cccc(S(=O)(=O)Nc3ccccc3F)c2)n(C)c1=O`, the cell number change is -4.92%. In addition, the AC50 under setting [1] is 2.31 µM [falling, single point].

With `CC(=O)NC1=C(NC2CCS(=O)(=O)C2)C(=O)c2ccccc2C1=O` (stereo not drawn), the cell number change is -72.2%. The concentration at half-maximal activity (AC50) under setting [2] was 13 µM [falling, partial curve]. Also, under setting [1], the AC50 was 8.2 µM [falling, partial curve].

For the compound `CNC(=O)COC(=O)CCC(=O)c1ccc(Cl)cc1`, the cell number change was determined as 24.3%. Moreover, the AC50 under setting [1] was 13 µM [rising, single point].

On to `COc1ccc(NC(=O)CSc2ncnc3c2cnn3Cc2ccccc2)cc1`, for which the cell number change is -12.1%. Also, under setting [1], the concentration at half-maximal activity (AC50) was 29.1 µM [rising, single point].

On to `COc1cccc(-c2nnn(CC(=O)N3CCCCC3)n2)c1`, for which the cell number change came out at 30.5%. Moreover, the half-maximal activity concentration (AC50) under setting [2] is 18.4 µM [rising, partial curve, poor fit].

For `O=C(CNC(=O)c1ccccc1)c1ccccc1`, the cell number change was determined as 24.5%. Moreover, the AC50 under setting [1] was 6.51 µM [rising, partial curve].

On to `COC(=O)c1ccc(CNS(=O)(=O)c2ccc3ccccc3c2)cc1`, for which the cell number change is 7.26%. Moreover, the half-maximal activity concentration (AC50) under setting [1] is 6.51 µM [rising, single point].

With `CCOc1ccccc1CNS(=O)(=O)c1cc(-c2cc(C)no2)ccc1C`, the cell number change was -36.7%. Besides, the concentration at half-maximal activity (AC50) under setting [2] is 10.3 µM [falling, partial curve, poor fit]. Further, under setting [1], the half-maximal activity concentration (AC50) was 20.6 µM [falling, partial curve].

As for `CC1CCC2(CC1)NC(=O)N(NC(=O)C1CCN(C(=O)c3ccc(Cl)cc3)CC1)C2=O` (stereo not drawn), the cell number change is -10.4%. The concentration at half-maximal activity (AC50) under setting [1] is 6.51 µM [rising, single point].

Consider `O=C(Nc1ccc(F)cc1F)C1CCN(c2ncnc3c2sc2cccc(F)c23)CC1`, for which the cell number change is 13.5%.

As for `COC(=O)c1c(NC(=O)c2ccc([N+](=O)[O-])o2)sc2c1CCN(C(C)C)C2`, the cell number change is -22.6%. Further, under setting [1], the concentration at half-maximal activity (AC50) was 20.6 µM [falling, single point].

Regarding `Cc1ccc2[nH]c(C(=O)N3CCN(c4cccc(Cl)c4)CC3)cc2c1`, the cell number change is -16.1%.

As to `Cc1cccc(N2Cc3ccccc3C2=NC(=O)c2ccc(Cl)nc2)c1`, the cell number change was -0.784%. For the same compound, the AC50 under setting [1] was 29.1 µM [rising, partial curve, poor fit].

As for `CCCC(C(=O)NC1CCCC1)N(C(=O)Cn1nnc(-c2ccc(C)o2)n1)C1CCCC1` (stereo not drawn), the cell number change was found to be 2.98%. Under setting [1], the AC50 was 6.51 µM [falling, single point].

Consider `C=CCn1c(SCC(=O)c2ccc(Br)cc2)nnc1C(C)NC(=O)Cc1ccc(OC)cc1` (stereo not drawn), for which the cell number change is 34.7%. For the same compound, the AC50 under setting [2] is 29.1 µM [rising, single point]. The AC50 under setting [1] is 25.9 µM [falling, single point].

Consider `COc1ccc(/C=C/C(=O)c2c(C)cc(C)[nH]c2=O)c2ccccc12`, for which the cell number change was -29%.

Turning to `CCc1ccc(NC(=O)C2CCCN(S(=O)(=O)c3cccnc3)C2)cc1` (stereo not drawn), the cell number change was 14.4%.

Take `COc1ccc(NC(=O)Cn2nnc(-c3ccccc3F)n2)cc1`: the cell number change was -6.41%. The AC50 under setting [1] is 13 µM [rising, partial curve].

Regarding `O=C(COc1ccc([N+](=O)[O-])cc1)NC(=O)NC1CCS(=O)(=O)C1` (stereo not drawn), the cell number change turned out to be 16.5%.

Turning to `CNc1oc(C)nc1S(=O)(=O)c1ccccc1`, the concentration at half-maximal activity (AC50) under setting [1] was 29.1 µM [falling, partial curve].

For `Cc1csc(NC(=O)CSc2ccc(-c3ccc(F)cc3)nn2)n1`, the cell number change came to 8.26%. The half-maximal activity concentration (AC50) under setting [1] was 0.146 µM [rising, full curve, poor fit].

For `O=C(CN1C(=O)c2cccc3cccc(c23)C1=O)N1CCN(Cc2ccc3c(c2)OCO3)CC1`, the half-maximal activity concentration (AC50) is 2.59 µM [rising, partial curve] under setting [2] and 1.46 µM [rising, partial curve] under setting [1].

On to `Cc1ccc(-n2c3c(cc(C(=O)N4CCN(C)CC4)c2=O)C(=O)CC(C)(C)C3)cc1`, for which the cell number change is -9.05%. Further, the AC50 under setting [1] is 0.0058 µM [falling, full curve, poor fit].

With `O=C(Cn1cc([N+](=O)[O-])cn1)Nc1ccccn1`, the cell number change is -18.6%. Besides, the half-maximal activity concentration (AC50) under setting [1] is 0.00411 µM [falling, full curve, poor fit].

In the case of `Cc1ccc2cc(CCNC(=O)CCCc3ccccc3)c(=O)[nH]c2c1C`, the cell number change was determined as 13.6%. For the same compound, the AC50 under setting [1] was 6.51 µM [rising, single point].

Turning to `CC1Nc2ncnc(N3CCN(c4ccccn4)CC3)c2N(Cc2ccccc2)C1=O` (stereo not drawn), under setting [1], the concentration at half-maximal activity (AC50) is 14.6 µM [rising, partial curve].

On to `CCOC(=O)C1CCCN(CC(=O)Nc2c(C(=O)OC)[nH]c3ccc(C)cc23)C1` (stereo not drawn), for which the cell number change was -2.78%.

Consider `Cc1ccccc1NC(=S)NC(=O)COc1ccccc1C`, for which the cell number change amounted to 22.9%. In addition, the AC50 under setting [2] is 4.61 µM [rising, partial curve]. Under setting [1], the half-maximal activity concentration (AC50) was 2.91 µM [rising, partial curve].

Turning to `CCCCn1c(N)c(N(CCOC)C(=O)c2ccc(S(=O)(=O)N3CCCCC3)cc2)c(=O)[nH]c1=O`, the cell number change is -14.5%. Further, under setting [2], the AC50 is 0.731 µM [falling, full curve, poor fit]. Moreover, the AC50 under setting [1] is 0.731 µM [falling, full curve, poor fit].

For the compound `CCCCN(C)S(=O)(=O)c1ccc(C(=O)Nc2nnc(C3=COCCO3)o2)cc1`, the cell number change worked out at 0.706%. The AC50 under setting [1] was 0.116 µM [falling, full curve, poor fit].

Consider `COc1ccc(NC(=O)CSc2nc3c(c(=O)n2-c2ccc(F)cc2)SCC3)c(OC)c1`, for which the concentration at half-maximal activity (AC50) under setting [1] was 6.51 µM [rising, single point].

Turning to `Cc1ccc(S(=O)(=O)N(CC(=O)N2CCC(C)CC2)Cc2ccccc2F)cc1`, the cell number change came out at 15.7%.
